Source: paper doi:10.1101/787721

The chains behind the UniProt entries cited, without tags or fusion partners. Residues count along the entry.
UniProt P56181, residues 35-108: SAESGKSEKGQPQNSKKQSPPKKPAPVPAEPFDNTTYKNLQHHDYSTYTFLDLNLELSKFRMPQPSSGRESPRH
UniProt P00414: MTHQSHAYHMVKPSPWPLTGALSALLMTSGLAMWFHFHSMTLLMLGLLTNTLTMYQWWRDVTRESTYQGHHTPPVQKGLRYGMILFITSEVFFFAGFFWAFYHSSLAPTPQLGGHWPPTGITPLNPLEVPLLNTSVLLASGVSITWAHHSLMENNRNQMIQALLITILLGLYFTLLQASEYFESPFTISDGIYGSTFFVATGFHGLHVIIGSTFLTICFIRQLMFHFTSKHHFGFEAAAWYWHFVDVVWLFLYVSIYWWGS
UniProt Q9Y241: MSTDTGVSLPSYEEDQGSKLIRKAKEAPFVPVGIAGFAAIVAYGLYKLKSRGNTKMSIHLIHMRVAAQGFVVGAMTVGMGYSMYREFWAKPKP
UniProt Q9P032: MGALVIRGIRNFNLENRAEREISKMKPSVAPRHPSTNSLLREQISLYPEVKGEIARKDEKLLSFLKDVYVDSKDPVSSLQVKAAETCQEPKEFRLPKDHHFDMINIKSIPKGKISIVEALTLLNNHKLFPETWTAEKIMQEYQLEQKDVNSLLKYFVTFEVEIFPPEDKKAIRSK

T1: HIGD2A with a C-terminal FLAG tag (human) (UniProt Q9BW72)
T1 sequence: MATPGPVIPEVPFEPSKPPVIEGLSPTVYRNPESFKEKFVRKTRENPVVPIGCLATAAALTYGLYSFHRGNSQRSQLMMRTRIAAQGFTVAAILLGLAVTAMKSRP

B1: COA3, complex IV assembly factor (protein, UniProt Q9Y2R0 1-106)
chain: MASSGAGDPLDSKRGEAPFAQRIDPTREKLTPEQLHSMRQAELAQWQKVLPRRRTRNIVTGLGIGALVLAIYGYTFYSISQERFLDELEDEAKAARARALARASGS
B2: SCO1, complex IV assembly factor (protein, UniProt O75880 68-301)
chain: STARPPPPWSQKGPGDSTRPSKPGPVSWKSLAITFAIGGALLAGMKHVKKEKAEKLEKERQRHIGKPLLGGPFSLTTHTGERKTDKDYLGQWLLIYFGFTHCPDVCPEELEKMIQVVDEIDSITTLPDLTPLFISIDPERDTKEAIANYVKEFSPKLVGLTGTREEVDQVARAYRVYYSPGPKDEDEDYIVDHTIIMYLIGPDGEFLDYFGQNKRKGEIAASIATHMRPYRKKS

Key:
Test in all cases: affinity purification with mass spectrometry
[1] = target: FLAG-tagged complex I subunit NDUFV3 (human) (UniProt P56181)
[2] = target: T1, HIGD2A with a C-terminal FLAG tag (human)
[3] = target: FLAG-tagged complex I subunit NDUFV3 (human) (UniProt P56181); remark: listed apart in the source
[4] = target: T1, HIGD2A with a C-terminal FLAG tag (human); remark: listed apart in the source

Molecule | binding [2] | binding [4] | other results
COX3 (MT-CO3), mtDNA-encoded subunit of complex IV (from UniProt P00414 1-261) |  |  | binding [1]: binds
HIGD1A (from UniProt Q9Y241 1-93) | binds |  | 
NDUFAF2, complex I assembly factor (human (endogenous in HEK293T)) | binds |  | 
NDUFAF4, complex I assembly factor (from UniProt Q9P032 1-175) | binds |  | 
B1 |  | binds | binding [3]: binds
B2 |  | binds | 

Where two headings read alike, the source gives them in different places. Results are given in words; binding and its absence hold for the method and conditions named. Binding seen in cells or lysates may run through a third protein. Here binding means that the protein was enriched with, or labelled near, the bait; the list need not be complete. For some of these results: Tags and fused reporters may be left off the sequences shown.
